Test results as given in the supplement of paper PMC12819154, “High-throughput peptide-centric local stability assay extends protein–ligand identification to membrane proteins, tissues and bacteria” (Nature Structural & Molecular Biology, 2025).
This is one part of the list. Most entries show no effect beyond the scatter of the controls.

Chains of the proteins cited; added tags and fusions are not shown. Lines headed by an entry give the natural chain unless they say otherwise; changes in a name come on top.
UniProt Q9NQ92: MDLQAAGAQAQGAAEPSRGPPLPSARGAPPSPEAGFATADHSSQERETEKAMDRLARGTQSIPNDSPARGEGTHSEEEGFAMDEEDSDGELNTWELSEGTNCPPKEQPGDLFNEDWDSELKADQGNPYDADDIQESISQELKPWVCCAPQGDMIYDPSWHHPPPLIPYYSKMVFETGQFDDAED
UniProt Q9NUP1: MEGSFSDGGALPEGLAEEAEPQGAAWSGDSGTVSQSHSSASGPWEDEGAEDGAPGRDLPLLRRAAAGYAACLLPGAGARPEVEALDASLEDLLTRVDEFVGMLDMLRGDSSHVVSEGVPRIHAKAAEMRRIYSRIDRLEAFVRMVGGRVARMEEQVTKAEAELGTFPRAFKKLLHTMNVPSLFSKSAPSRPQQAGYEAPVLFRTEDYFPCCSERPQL
UniProt Q9NVT9: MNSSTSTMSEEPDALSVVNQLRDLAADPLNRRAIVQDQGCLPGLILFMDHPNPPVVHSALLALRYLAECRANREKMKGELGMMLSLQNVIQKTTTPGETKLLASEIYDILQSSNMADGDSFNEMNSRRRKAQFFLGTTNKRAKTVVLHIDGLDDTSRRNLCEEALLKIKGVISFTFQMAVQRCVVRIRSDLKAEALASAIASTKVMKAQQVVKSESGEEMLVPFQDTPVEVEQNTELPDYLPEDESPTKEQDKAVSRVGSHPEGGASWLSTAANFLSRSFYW
UniProt Q9NW64: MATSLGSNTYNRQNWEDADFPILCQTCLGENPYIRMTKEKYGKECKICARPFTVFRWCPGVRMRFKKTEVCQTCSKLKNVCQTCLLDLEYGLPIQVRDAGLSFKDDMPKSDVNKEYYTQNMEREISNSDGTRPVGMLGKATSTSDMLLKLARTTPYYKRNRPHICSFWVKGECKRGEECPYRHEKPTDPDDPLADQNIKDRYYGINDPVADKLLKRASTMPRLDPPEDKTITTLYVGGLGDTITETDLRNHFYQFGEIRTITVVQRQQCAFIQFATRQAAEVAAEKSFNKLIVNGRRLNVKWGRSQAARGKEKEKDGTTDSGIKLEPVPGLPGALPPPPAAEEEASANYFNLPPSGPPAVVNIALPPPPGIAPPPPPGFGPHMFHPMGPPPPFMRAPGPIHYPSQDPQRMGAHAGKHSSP
UniProt Q9NP72: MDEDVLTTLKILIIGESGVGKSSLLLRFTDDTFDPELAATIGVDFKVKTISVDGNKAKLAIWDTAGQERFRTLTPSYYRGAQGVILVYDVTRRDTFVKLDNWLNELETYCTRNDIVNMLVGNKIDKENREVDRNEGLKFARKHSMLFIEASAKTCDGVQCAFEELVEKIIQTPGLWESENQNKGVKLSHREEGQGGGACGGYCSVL
UniProt Q9NUM4, whole entry: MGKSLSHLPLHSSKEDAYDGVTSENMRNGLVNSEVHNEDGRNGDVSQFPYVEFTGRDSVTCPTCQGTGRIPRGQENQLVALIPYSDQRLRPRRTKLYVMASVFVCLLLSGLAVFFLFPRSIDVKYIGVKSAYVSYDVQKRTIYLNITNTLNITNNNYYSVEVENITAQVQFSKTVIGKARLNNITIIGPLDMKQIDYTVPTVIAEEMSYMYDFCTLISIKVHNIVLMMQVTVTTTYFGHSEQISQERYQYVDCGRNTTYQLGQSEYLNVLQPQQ
UniProt Q9NRW1: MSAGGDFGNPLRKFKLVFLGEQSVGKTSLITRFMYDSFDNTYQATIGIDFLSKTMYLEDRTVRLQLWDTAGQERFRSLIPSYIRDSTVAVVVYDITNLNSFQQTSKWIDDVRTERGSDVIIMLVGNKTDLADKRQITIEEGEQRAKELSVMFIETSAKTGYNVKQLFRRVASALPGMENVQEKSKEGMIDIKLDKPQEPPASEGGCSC
UniProt Q9NQ88: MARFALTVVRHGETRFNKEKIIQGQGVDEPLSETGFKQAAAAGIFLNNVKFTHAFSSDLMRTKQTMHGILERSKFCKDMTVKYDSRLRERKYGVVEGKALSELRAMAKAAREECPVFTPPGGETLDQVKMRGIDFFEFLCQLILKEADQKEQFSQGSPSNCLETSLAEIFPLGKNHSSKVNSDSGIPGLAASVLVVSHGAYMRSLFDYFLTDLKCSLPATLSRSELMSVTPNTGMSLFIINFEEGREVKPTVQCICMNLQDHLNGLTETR
UniProt Q9NUY8: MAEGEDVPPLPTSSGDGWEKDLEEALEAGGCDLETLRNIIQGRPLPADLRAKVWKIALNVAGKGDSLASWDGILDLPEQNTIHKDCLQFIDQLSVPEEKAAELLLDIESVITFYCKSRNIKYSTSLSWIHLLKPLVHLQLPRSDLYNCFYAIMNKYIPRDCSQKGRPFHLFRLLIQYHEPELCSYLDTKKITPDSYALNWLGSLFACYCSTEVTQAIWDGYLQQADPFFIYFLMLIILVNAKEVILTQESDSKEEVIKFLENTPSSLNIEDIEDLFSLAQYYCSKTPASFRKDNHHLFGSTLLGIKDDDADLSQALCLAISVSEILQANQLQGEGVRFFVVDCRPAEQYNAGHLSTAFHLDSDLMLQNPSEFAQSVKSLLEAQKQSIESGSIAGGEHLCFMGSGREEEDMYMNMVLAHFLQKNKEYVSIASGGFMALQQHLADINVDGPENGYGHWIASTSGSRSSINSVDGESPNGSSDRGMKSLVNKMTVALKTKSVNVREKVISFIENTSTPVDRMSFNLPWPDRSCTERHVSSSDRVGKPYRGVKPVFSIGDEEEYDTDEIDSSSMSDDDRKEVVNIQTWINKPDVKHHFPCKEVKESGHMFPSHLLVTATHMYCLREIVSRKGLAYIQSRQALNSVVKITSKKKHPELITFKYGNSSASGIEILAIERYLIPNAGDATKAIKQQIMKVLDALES
UniProt Q9NVR5: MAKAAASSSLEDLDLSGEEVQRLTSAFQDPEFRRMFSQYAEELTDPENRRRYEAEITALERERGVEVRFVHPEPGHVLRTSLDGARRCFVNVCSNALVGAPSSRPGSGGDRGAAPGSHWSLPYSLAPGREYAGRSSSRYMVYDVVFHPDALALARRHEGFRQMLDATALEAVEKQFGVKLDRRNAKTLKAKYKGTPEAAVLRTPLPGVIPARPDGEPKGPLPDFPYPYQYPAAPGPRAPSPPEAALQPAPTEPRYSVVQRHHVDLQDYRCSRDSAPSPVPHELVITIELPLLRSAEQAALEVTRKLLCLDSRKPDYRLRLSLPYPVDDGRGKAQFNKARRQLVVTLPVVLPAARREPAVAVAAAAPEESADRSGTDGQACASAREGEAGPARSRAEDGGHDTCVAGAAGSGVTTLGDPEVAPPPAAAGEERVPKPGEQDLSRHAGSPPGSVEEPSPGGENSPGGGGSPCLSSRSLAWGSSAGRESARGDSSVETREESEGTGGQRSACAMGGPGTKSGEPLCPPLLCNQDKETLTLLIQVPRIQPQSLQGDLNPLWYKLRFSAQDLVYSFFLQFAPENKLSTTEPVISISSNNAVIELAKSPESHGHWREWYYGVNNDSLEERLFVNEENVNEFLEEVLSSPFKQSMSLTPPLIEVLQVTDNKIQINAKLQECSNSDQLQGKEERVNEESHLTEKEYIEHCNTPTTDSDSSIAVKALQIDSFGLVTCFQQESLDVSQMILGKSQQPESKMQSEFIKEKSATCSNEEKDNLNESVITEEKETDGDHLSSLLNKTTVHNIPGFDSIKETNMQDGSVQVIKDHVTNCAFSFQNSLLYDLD
UniProt Q9NUT2: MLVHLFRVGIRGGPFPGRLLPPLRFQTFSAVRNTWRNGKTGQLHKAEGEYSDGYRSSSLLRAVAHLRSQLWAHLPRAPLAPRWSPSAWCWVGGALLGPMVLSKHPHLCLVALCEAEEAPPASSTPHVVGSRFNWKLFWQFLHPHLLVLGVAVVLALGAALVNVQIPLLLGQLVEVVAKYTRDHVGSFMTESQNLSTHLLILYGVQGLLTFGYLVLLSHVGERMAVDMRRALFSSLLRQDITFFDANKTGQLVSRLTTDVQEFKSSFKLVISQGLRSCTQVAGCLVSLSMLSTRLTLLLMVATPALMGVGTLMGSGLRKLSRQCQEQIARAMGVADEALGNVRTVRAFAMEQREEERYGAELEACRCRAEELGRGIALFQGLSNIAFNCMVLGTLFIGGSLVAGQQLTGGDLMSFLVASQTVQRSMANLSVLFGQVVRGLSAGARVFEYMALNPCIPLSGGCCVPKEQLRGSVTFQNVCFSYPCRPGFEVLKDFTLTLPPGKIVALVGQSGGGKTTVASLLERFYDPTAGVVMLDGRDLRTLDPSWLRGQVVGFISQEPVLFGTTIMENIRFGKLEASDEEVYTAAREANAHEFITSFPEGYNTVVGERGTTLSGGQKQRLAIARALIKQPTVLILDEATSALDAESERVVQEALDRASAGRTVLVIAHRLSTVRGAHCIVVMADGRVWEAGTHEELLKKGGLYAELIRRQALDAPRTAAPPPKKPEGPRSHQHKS
UniProt Q9NT62, whole entry: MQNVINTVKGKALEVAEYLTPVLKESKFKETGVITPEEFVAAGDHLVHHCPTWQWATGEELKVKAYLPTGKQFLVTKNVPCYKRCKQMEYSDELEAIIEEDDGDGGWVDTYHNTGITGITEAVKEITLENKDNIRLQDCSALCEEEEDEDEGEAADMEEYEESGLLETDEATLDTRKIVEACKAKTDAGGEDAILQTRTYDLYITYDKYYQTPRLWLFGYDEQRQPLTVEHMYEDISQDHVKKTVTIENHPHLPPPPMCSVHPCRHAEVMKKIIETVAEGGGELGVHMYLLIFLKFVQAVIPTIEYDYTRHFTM
UniProt Q9NV35: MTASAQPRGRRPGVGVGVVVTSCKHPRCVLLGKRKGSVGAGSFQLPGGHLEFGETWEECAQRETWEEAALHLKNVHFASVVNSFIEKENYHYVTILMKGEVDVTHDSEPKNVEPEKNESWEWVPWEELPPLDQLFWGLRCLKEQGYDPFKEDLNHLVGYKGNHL
UniProt Q9NUL7: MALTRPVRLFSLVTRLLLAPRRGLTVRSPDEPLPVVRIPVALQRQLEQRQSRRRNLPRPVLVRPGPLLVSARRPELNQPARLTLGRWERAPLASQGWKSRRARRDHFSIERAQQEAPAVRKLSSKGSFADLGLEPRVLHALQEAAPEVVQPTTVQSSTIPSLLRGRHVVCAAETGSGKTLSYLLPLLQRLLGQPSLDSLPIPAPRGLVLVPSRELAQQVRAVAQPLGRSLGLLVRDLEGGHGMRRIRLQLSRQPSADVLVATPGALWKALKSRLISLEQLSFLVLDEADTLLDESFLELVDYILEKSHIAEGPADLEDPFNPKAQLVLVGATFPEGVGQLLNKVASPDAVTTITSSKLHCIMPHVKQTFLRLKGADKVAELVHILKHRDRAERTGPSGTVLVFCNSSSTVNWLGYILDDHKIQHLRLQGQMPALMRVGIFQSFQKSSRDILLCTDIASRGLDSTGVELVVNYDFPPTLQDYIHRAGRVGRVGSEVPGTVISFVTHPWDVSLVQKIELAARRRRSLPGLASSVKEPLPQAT
UniProt Q9NR31: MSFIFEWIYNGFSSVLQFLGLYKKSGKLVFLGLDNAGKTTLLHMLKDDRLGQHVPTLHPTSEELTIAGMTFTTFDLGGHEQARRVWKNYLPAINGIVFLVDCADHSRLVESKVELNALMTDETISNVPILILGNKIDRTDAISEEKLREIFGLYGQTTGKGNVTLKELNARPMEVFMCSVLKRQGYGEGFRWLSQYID
UniProt Q9NQW7: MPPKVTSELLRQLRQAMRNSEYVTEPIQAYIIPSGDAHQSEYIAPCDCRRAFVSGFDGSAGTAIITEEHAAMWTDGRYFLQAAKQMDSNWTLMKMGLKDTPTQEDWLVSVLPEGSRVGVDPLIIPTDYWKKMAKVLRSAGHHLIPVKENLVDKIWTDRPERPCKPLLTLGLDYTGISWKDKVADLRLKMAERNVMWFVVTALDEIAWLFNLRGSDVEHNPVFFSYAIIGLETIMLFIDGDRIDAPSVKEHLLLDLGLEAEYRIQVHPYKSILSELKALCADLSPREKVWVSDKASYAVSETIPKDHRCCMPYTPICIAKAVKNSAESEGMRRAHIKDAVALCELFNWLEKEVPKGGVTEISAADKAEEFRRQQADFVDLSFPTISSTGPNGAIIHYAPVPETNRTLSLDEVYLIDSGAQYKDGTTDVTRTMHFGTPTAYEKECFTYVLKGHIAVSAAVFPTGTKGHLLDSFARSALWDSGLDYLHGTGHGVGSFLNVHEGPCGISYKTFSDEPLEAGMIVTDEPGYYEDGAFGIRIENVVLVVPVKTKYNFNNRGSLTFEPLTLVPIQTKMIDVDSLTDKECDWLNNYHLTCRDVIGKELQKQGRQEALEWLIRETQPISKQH
UniProt Q9NR46: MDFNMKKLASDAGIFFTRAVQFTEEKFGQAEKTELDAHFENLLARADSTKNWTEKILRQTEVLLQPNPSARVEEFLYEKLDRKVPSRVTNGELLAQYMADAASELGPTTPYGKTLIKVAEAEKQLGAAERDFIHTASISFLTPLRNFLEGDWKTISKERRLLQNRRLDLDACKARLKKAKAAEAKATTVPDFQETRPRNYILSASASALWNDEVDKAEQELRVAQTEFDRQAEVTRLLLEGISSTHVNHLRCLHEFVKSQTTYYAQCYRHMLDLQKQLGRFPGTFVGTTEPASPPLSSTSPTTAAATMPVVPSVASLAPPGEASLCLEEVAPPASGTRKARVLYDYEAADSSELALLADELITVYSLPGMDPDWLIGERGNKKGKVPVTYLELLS

The targets below were run with Cc1nc(Nc2ncc(C(=O)Nc3c(C)cccc3Cl)s2)cc(N2CCN(CCO)CC2)n1 [dasatinib] (assay: log2 fold change of tryptic peptide abundance, ligand vs vehicle (limited proteolysis) (log2 ratio); higher = more trypsin-susceptible (destabilized)). Details: ligand concentration: 5 uM; sample: K562 cleared lysate.

Q: How did the log2 fold change turn out when “COPRS (peptide sequence: GTQSIPNDSPAR, peptide start residue: 58) (UniProt Q9NQ92)” was run?
A: 0.0934

Q: Which log2 fold change does the source give for “MRPL47 (peptide sequence: GLEEFFDDPKNWGQEK, peptide start residue: 63) (UniProt Q9HD33)” here?
A: 0.329

Q: Which log2 fold change does the source give for “UniProt Q9NUP1 (peptide sequence: AEAELGTFPR, peptide start residue: 159)” here?
A: -0.18

Q: With “ARMC1 (peptide sequence: AKTVVLHIDGLDDTSRR, peptide start residue: 142) (UniProt Q9NVT9)” as the target, how does the log2 fold change read?
A: 0.753

Q: “UniProt Q9NW64 (peptide sequence: DRYYGINDPVADK, peptide start residue: 200)” was tested. Which log2 fold change did it give?
A: -0.17

Q: How did the log2 fold change turn out when “IFT57 (peptide sequence: VKQEMEEK, peptide start residue: 356) (UniProt Q9NWB7)” was run?
A: 0.708

Q: Which log2 fold change does the source give for “RAB18 (peptide sequence: NDIVNMLVGNK, peptide start residue: 113) (UniProt Q9NP72)” here?
A: -0.456

Q: Which log2 fold change does the source give for “ASB6 (peptide sequence: IHESSPLDLASEEPERLPCLQR, peptide start residue: 135) (UniProt Q9NWX5)” here?
A: -0.574

Q: Which log2 fold change does the source give for “RBM28 (peptide sequence: GQPEPAKDQQQK, peptide start residue: 611) (UniProt Q9NW13)” here?
A: 0.133

Q: How did the log2 fold change turn out when “TMEM106B (peptide sequence: NGLVNSEVHNEDGR, peptide start residue: 28) (UniProt Q9NUM4)” was run?
A: 0.232

Q: For “UniProt Q9NRW1 (peptide sequence: TMYLEDR, peptide start residue: 54)”, which log2 fold change is on record?
A: 0.0207

Q: “DDX19A (peptide sequence: TSTTAEKTDEEEKEDR, peptide start residue: 40) (UniProt Q9NUU7)” was tested. Which log2 fold change did it give?
A: -0.0445

Q: How did the log2 fold change turn out when “UniProt Q9NQ88 (peptide sequence: CSLPATLSR, peptide start residue: 215)” was run?
A: 0.0558

Q: Which log2 fold change does the source give for “TMEM9B (peptide sequence: SRANVLNKVEYAQQR, peptide start residue: 164) (UniProt Q9NQ34)” here?
A: -0.858

Q: “TBC1D23 (peptide sequence: NIIQGRPLPADLR, peptide start residue: 38) (UniProt Q9NUY8)” was tested. Which log2 fold change did it give?
A: -0.314

Q: With “UniProt Q9NVR5 (peptide sequence: REPAVAVAAAAPEESADR, peptide start residue: 355)” as the target, how does the log2 fold change read?
A: 0.48

Q: For “HELLS (peptide sequence: NALQHCYWK, peptide start residue: 341) (UniProt Q9NRZ9)”, which log2 fold change is on record?
A: -0.494

Q: With “SIRT3 (peptide sequence: DLVGPLAWHPR, peptide start residue: 346) (UniProt Q9NTG7)” as the target, how does the log2 fold change read?
A: -0.16

Q: “ABCB8 (peptide sequence: TVLVIAHR, peptide start residue: 684) (UniProt Q9NUT2)” was tested. Which log2 fold change did it give?
A: 0.0325

Q: “ATG3 (peptide sequence: QPLTVEHMYEDISQDHVK, peptide start residue: 225) (UniProt Q9NT62)” was tested. Which log2 fold change did it give?
A: -0.386

Q: “RANGRF (peptide sequence: AVHVESVQPLSLENLALR, peptide start residue: 79) (UniProt Q9HD47)” was tested. Which log2 fold change did it give?
A: 0.127

Q: With “UniProt Q9NSI2 (peptide sequence: RGEAGSSAR, peptide start residue: 79)” as the target, how does the log2 fold change read?
A: 0.361

Q: For “FGFR1OP2 (peptide sequence: LRDHDDAAESLIEQTTALNK, peptide start residue: 19) (UniProt Q9NVK5)”, which log2 fold change is on record?
A: 0.485

Q: For “UniProt Q9NUS5 (peptide sequence: APNTEDTGLCR, peptide start residue: 12)”, which log2 fold change is on record?
A: -0.234

Q: “NUDT15 (peptide sequence: EQGYDPFKEDLNHLVGYK, peptide start residue: 143) (UniProt Q9NV35)” was tested. Which log2 fold change did it give?
A: -0.15

Q: With “RNF146 (peptide sequence: KGVAGLRLDCDANTVNLAR, peptide start residue: 176) (UniProt Q9NTX7)” as the target, how does the log2 fold change read?
A: -0.652

Q: How did the log2 fold change turn out when “DDX28 (peptide sequence: GSFADLGLEPR, peptide start residue: 126) (UniProt Q9NUL7)” was run?
A: 0.466

Q: “MYO10 (peptide sequence: EEEERER, peptide start residue: 200) (UniProt Q9HD67)” was tested. Which log2 fold change did it give?
A: -0.0284

Q: How did the log2 fold change turn out when “SAR1A (peptide sequence: PMEVFMCSVLKR, peptide start residue: 172) (UniProt Q9NR31)” was run?
A: -0.367

Q: With “XPNPEP1 (peptide sequence: QMDSNWTLMK, peptide start residue: 85) (UniProt Q9NQW7)” as the target, how does the log2 fold change read?
A: -0.107

Q: With “SERINC1 (peptide sequence: SDGSLEDGDDVHR, peptide start residue: 361) (UniProt Q9NRX5)” as the target, how does the log2 fold change read?
A: -0.189

Q: “STRN4 (peptide sequence: RCTVDGSPHELESR, peptide start residue: 336) (UniProt Q9NRL3)” was tested. Which log2 fold change did it give?
A: 0.102

Q: With “UniProt Q9NWV8 (peptide sequence: SNPEGAEDR, peptide start residue: 29)” as the target, how does the log2 fold change read?
A: 0.0858

Q: With “EPB41L5 (peptide sequence: AQVEAVHK, peptide start residue: 569) (UniProt Q9HCM4)” as the target, how does the log2 fold change read?
A: 0.276

Q: For “UniProt Q9NQB0 (peptide sequence: QLHMQLYPGWSAR, peptide start residue: 357)”, which log2 fold change is on record?
A: -0.107

Q: “UniProt Q9NUQ3 (peptide sequence: ALQTERNELNEKVEVLK, peptide start residue: 440)” was tested. Which log2 fold change did it give?
A: -0.617

Q: With “PRMT7 (peptide sequence: QVSSSAACHSR, peptide start residue: 255) (UniProt Q9NVM4)” as the target, how does the log2 fold change read?
A: -1.86

Q: For “SH3GLB2 (peptide sequence: VAQTEFDRQAEVTR, peptide start residue: 223) (UniProt Q9NR46)”, which log2 fold change is on record?
A: 0.193
